Results: paper PMC12116771
Results are given in words; binding and its absence hold for the method and conditions named. Binding seen in cells or lysates may run through a third protein. Some binding calls cover weakened binding; strength is not graded here. Where a sequence is shown, tags or fusion partners need not be part of it.

Target: T1, GST-tagged Scd6 (S. cerevisiae) (UniProt P45978)
T1 sequence: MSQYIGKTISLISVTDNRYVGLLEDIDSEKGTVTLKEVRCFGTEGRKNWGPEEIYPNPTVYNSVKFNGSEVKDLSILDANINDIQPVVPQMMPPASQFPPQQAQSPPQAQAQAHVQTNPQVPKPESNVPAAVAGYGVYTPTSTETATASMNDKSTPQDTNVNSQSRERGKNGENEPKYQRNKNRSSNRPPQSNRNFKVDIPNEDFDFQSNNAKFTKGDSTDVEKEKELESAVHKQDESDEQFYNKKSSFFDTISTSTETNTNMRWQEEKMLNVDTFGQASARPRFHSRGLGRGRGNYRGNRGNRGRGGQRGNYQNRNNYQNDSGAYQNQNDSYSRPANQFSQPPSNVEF
Experiment: pull-down; Scd6-GST captured on glutathione sepharose from yeast lysate (10 mM Tris, 150 mM NaCl, 0.5% NP40, diluted 1:1 without NP40), 4 °C for 90 min; blot with anti-GST and anti-eIF4G1; cells untreated or treated with 200 mM HU

binding: binds
B1: eIF4G1 (protein, UniProt P39935 1-952)
chain: MTDETAHPTQSASKQESAALKQTGDDQQESQQQRGYTNYNNGSNYTQKKPYNSNRPHQQRGGKFGPNRYNNRGNYNGGGSFRGGHMGANSSNVPWTGYYNNYPVYYQPQQMAAAGSAPANPIPVEEKSPVPTKIEITTKSGEHLDLKEQHKAKLQSQERSTVSPQPESKLKETSDSTSTSTPTPTPSTNDSKASSEENISEAEKTRRNFIEQVKLRKAALEKKRKEQLEGSSGNNNIPMKTTPENVEEKGSDKPEVTEKTKPAEEKSAEPEVKQETPAEEGEQGEKGQIKEESTPKVLTFAERLKLKKQQKEREEKTEGKENKEVPVQEETKSAIESAPVPPSEQVKEETEVAETEQSNIDESATTPAIPTKSDEAEAEVEAEAGDAGTKIGLEAEIETTTDETDDGTNTVSHILNVLKDATPIEDVFSFNYPEGIEGPDIKYKKEHVKYTYGPTFLLQFKDKLNVKADAEWVQSTASKIVIPPGMGRGNRSRDSGRFGNNSSRGHDFRNTSVRNMDDRANSRTSSKRRSKRMNDDRRSNRSYTSRRDRERGSYRNEEKREDDKPKEEVAPLVPSANRWVPKFKSKKTEKKLAPDGKTELLDKDEVERKMKSLLNKLTLEMFDAISSEILAIANISVWETNGETLKAVIEQIFLKACDEPHWSSMYAQLCGKVVKELNPDITDETNEGKTGPKLVLHYLVARCHAEFDKGWTDKLPTNEDGTPLEPEMMSEEYYAAASAKRRGLGLVRFIGFLYRLNLLTGKMMFECFRRLMKDLTDSPSEETLESVVELLNTVGEQFETDSFRTGQATLEGSQLLDSLFGILDNIIQTAKISSRIKFKLIDIKELRHDKNWNSDKKDNGPKTIQQIHEEEERQRQLKNNSRSNSRRTNNSSNRHSFRRDAPPASKDSFITTRTYSQRNSQRAPPPKEEPAAPTSTATNMFSALMGESDDEE
